Source: US20210171598A1, “PEPTIDE HORMONE WITH ONE OR MORE O-GLYCANS” (priority 2017, published 2021)
Some results were stated once for a whole list of compounds, not compound by compound.

Test system: male Sprague Dawley rats
Test: Acute cardiovascular and renal actions of i.v. infusion in anesthetized rats
Type: in vivo
Settings: rat, remained constant
Excerpt: The protocol is outlined in FIG. 9A.
Rats were then subjected to vessel and bladder cannulation for peptide infusion, BP measurement, blood sampling and urine collection. A polyethylene (PE)-5G tube catheter was placed into the jugular vein for inulin, peptide intravenous infusion. The carotid artery was cannulated with a PE-50 tube catheter for BP measurement (Sonometrics, London, Ontario, Canada) and blood sampling. The bladder was accessed and cannulated with a PE-50 tube catheter for passive urine collection. After completion of the above procedural set up, a 45 min equilibration period was performed that included continuous IV inulin and saline infusion. After the 45 min equilibration period, baseline (Time==Q min) parameters were recorded and one blood sampling (0.7 ml) was performed. The inulin and saline infusion was replaced by a continuous intravenously (i.v.) infusion of equimolar ANP-Ser19/ST or ANP-Ser25/ST for 60 min. […] Urinary sodium was measured with pHOx Ultra (Nova Biomedical, Waltham, Mass.). Urine flow (UV) and urinary sodium excretion (UNaV) were calculated as urine volume or sodium clearance per min, Inulin concentrations were measured with enthrone method and inulin clearance was used for GFR quantification. Urinary cGMP and ANP excretion rate was calculated based on raw values obtained in the urine and UV.

Structure (SMILES): CC[C@H](C)[C@@H]1NC(=O)[C@H](CCCNC(=N)N)NC(=O)[C@H](CC(=O)O)NC(=O)[C@H](CCSC)NC(=O)[C@H](CCCNC(=N)N)NC(=O)CNC(=O)CNC(=O)[C@H](Cc2ccccc2)NC(=O)[C@@H](NC(=O)[C@H](CO)NC(=O)[C@H](CO)NC(=O)[C@H](CCCNC(=N)N)NC(=O)[C@H](CCCNC(=N)N)NC(=O)[C@H](CC(C)C)NC(=O)[C@@H](N)CO)CSSC[C@@H](C(=O)N[C@@H](CC(N)=O)C(=O)N[C@@H](CO)C(=O)N[C@@H](Cc2ccccc2)C(=O)N[C@@H](CCCNC(=N)N)C(=O)N[C@@H](Cc2ccc(O)cc2)C(=O)O)NC(=O)CNC(=O)[C@H](CC(C)C)NC(=O)CNC(=O)[C@H](CO[C@H]2O[C@H](CO)[C@H](O)[C@H](O[C@@H]3O[C@H](CO)[C@H](O)[C@H](O[C@]4(C(=O)O)C[C@H](O)[C@@H](NC(C)=O)[C@H]([C@H](O)[C@H](O)CO)O4)[C@H]3O)[C@H]2NC(C)=O)NC(=O)[C@H](CCC(N)=O)NC(=O)[C@H](C)NC(=O)CNC1=O [ANP-Ser19/ST]
- urine flow: 11 to 18 µL/min
